# Results from one PubChem assay

Source: PubChem BioAssay AID504749 (NCATS, 2011).

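Malaria parasite (P. falciparum) lines kept in red blood cells; parasite DNA is measured by SYBR Green fluorescence after lysis, 72 h after compound addition.
Each compound was titrated across a series from about 0.000037 to 29 µM.
The number is the fitted AC50, the concentration giving a half-maximal change in signal; a lower value means higher potency, whether the curve shows a decrease or an increase.
Calls follow the curve class and fit quality: every row here is inconclusive, covering signal-raising curves and weak, poorly fitted, partial or highest-dose-only inhibition curves.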

Values are in µM.
All entries here are filed as inconclusive.
These entries are mostly ones the record files as inconclusive; other results of the assay are not listed here.
A potency from a partial, single-point or poor curve is only a rough figure.
Some entries filed as inconclusive have a full curve.
The first word of each remark tells which way the curve ran; it can be opposite to the aim of the assay.

- CCCc1nc(C(C)(C)O)c(C(=O)OCc2oc(=O)oc2C)n1Cc1ccc(-c2ccccc2-c2nn[nH]n2)cc1 [DIV17] : fitted potency 4.256 µM (inhibitor, partial curve, poor fit)
- CCCCCCCCCCCCCCNCCO [CP191] : fitted potency 11.22 µM (inhibitor, single point)
- CCCCCCCCCCCCCCNCCO [P93_24] : fitted potency 10 µM (inhibitor, single point)
- CCCCCCCCCCCCCCNCCO [GB4] : fitted potency 16.94 µM (inhibitor, single point)
- CCCCCCCCCCCCCCNCCO [CP185] : fitted potency 12.59 µM (inhibitor, single point)
- CCCCCCCCCCCCCCNCCO [CP215] : fitted potency 0.0012 µM (activator, full curve, poor fit)
- CCCCCCCCCCCCCCNCCO [P94_40] : fitted potency 17.78 µM (inhibitor, single point)
- CCCCCCCCCCCCCCNCCO [ECU] : fitted potency 11.22 µM (inhibitor, single point)
- CCCCCCCCCCCCCCNCCO [CP238] : fitted potency 14.13 µM (inhibitor, single point)
- CCCCCCCCCCCCCCNCCO [PAD] : fitted potency 17.78 µM (inhibitor, single point)
- CCCCCCCCCCCCCCNCCO [ATS189] : fitted potency 15.85 µM (inhibitor, single point)
- CCCCCCCCCCCCCCNCCO [DIV14] : fitted potency 19.01 µM (inhibitor, single point)
- CCCCCCCCCCCCCCNCCO [CP297] : fitted potency 0.0015 µM (activator, full curve)
- CCCCCCCCCCCCCCNCCO [PC15] : fitted potency 11.22 µM (inhibitor, single point)
- CCCCCCCCCCCCCCNCCO [CP250] : fitted potency 14.13 µM (inhibitor, single point)
- CCCCCCCCCCCCCCNCCO [AA1029] : fitted potency 10 µM (inhibitor, single point)
- CCCCCCCCCCCCCCNCCO [CP252] : fitted potency 17.78 µM (inhibitor, single point)
- CCCCCCCCCCCCCCNCCO [CP265] : fitted potency 17.78 µM (inhibitor, single point)
- CCCCCCCCCCCCCCNCCO [CP256] : fitted potency 17.78 µM (inhibitor, single point)
- CCCCCCCCCCCCCCNCCO [DIV17] : fitted potency 9.528 µM (inhibitor, partial curve)
- CCCN[C@H]1CCc2nc(N)sc2C1 [CP266] : fitted potency 0.5358 µM (inhibitor, full curve, poor fit)
- OCC1(CO)COC(C(Cl)(Cl)Cl)OC1 [TAB109] : fitted potency 2.818 µM (inhibitor, single point)
- O=C(COc1ccc(Cl)cc1)OCCNC12CC3CC(CC(C3)C1)C2 [CP297] : fitted potency 21.33 µM (inhibitor, single point)
- O=C(COc1ccc(Cl)cc1)OCCNC12CC3CC(CC(C3)C1)C2 [GB4] : fitted potency 16.94 µM (inhibitor, single point)
- O=C(COc1ccc(Cl)cc1)OCCNC12CC3CC(CC(C3)C1)C2 [W2] : fitted potency 13.46 µM (inhibitor, single point)
- NC(=Nc1ccccc1)Nc1ccccc1 [GB4] : fitted potency 12 µM (inhibitor, single point)
- NC(=Nc1ccccc1)Nc1ccccc1 [PC26] : fitted potency 6.746 µM (inhibitor, partial curve)
- NC(=Nc1ccccc1)Nc1ccccc1 [Dd2] : fitted potency 17.78 µM (inhibitor, single point)
- NC(=Nc1ccccc1)Nc1ccccc1 [CP237] : fitted potency 12.59 µM (inhibitor, single point)

The last 2 entries again:

structure,tested on / at,fitted potency (µM),curve as filed
NC(=Nc1ccccc1)Nc1ccccc1,Dd2,17.78,"inhibitor, single point"
NC(=Nc1ccccc1)Nc1ccccc1,CP237,12.59,"inhibitor, single point"